Reference: patent US4280993A, “Process for determining the concentration of benzodiazepines in a body fluid” (priority 1978, dated 1981)

What was measured:
[1] = Recovery of lorazepam in biological fluids with extraction with ethyl acetate; design: species or system human
[2] = Recovery of lorazepam in biological fluids without extraction; design: species or system human
[3] = Blood (heparine), added 100 ng/ml
[4] = Blood (heparine), added 250 ng/ml
[5] = Blood (heparine), added 500 ng/ml
[6] = Plasma (heparine), added 100 ng/ml
[7] = Plasma (heparine), added 250 ng/ml
[8] = Plasma (heparine), added 500 ng/ml

## O=C1Nc2ccc(Cl)cc2C(c2ccccc2Cl)=NC1O (stereo not shown) [lorazepam, 7-chloro-5-(2-chlorophenyl)-3-hydroxy-2,3-dihydro-1H-1,4-benzodiazepin-2-one]
[1]; Blood (EDTA), added 10 ng/ml
  Recovery: 93%
[1]; Blood (citrate), added 10 ng/ml
  Recovery: 104%
[1]; Blood (heparine + NaF), added 3 ng/ml
  Recovery: 83%
[1]; Blood (heparine + NaF), added 10 ng/ml
  Recovery: 90%
[1]; Blood (heparine + NaF), added 30 ng/ml
  Recovery: 85%
[1]; Blood (heparine), added 3 ng/ml
  Recovery: 97%
[1]; Blood (heparine), added 10 ng/ml
  Recovery: 90%
[1]; Blood (heparine), added 30 ng/ml
  Recovery: 76%
[1]; Plasma (EDTA), added 10 ng/ml
  Recovery: 90%
[1]; Plasma (citrate), added 10 ng/ml
  Recovery: 104%
[1]; Plasma (heparine), added 3 ng/ml
  Recovery: 107%
[1]; Plasma (heparine), added 10 ng/ml
  Recovery: 90%
[1]; Plasma (heparine), added 30 ng/ml
  Recovery: 96%
[1]; Saliva, added 10 ng/ml
  Recovery: 106%
[1]; Serum, added 10 ng/ml
  Recovery: 91%
[1]; Urine, added 10 ng/ml
  Recovery: 95%
[1]; with the extraction method
  sensivity: > 1 ng/mL
[2]
  sensivity: about 20 ng/ml
[2]; [3]
  Lorazepam found: 115 ng/mL
  Recovery: 115%
[2]; [4]
  Lorazepam found: 254 ng/mL
  Recovery: 102%
[2]; [5]
  Lorazepam found: 486 ng/mL
  Recovery: 97%
[2]; [6]
  Lorazepam found: 99 ng/mL
  Recovery: 99%
[2]; [7]
  Lorazepam found: 227 ng/mL
  Recovery: 91%
[2]; [8]
  Lorazepam found: 409 ng/mL
  Recovery: 82%
[2]; Saliva, added 20 ng/ml
  Lorazepam found: 16 ng/mL
  Recovery: 80%
[2]; Urine, added 20 ng/ml
  Lorazepam found: 17.5 ng/mL
  Recovery: 87%
